Measured values from US12391701B2, “Chromene-based compounds, methods and uses thereof” (University of Minho, priority 2019, dated 2025).

Assays:
[1] = system: breast cancer cell line MCF-7; assay: Cell viability assay (MTS), MCF-7; type: cell-based, human; settings: selectivity index MCF-10A vs MCF-7; SI=(IC50 normal−IC50 cancer)/IC50 cancer
Protocol: In an embodiment, the cell growth inhibition and IC50 values of the synthesised and isolated chromene-based compounds were determined as part of the evaluation of the antiproliferative activity of the isolated agents. A complete study on the structure-activity relationship was performed for all the synthesised compounds. The antiproliferative activity against MCF-7 breast cancer cell lines were analysed. […] The non-neoplastic cell line MCF-10A was also used to determine the selectivity of the compounds for the tumour cells. For compounds with an IC50 value (concentration required to reduce cell viability by 50%) higher than 20 μM, the IC50 value was not determined. Selectivity index (SI) was calculated in order to evaluate the cytotoxicity of the tested compounds.
(§1) In an embodiment, three human breast cancer cell lines Hs578T, MDA-MB-468 and MCF-7, and a normal breast cell line MCF-10A, were obtained from ATCC (American Type Culture Collection). The cancer cell lines were cultured in Dulbecco's modified Eagle medium, 4.5 g/l glucose (DMEM, Gibco) supplemented with 10% heating inactivated Fetal Bovine Serum (FBS, Gibco) and 1% antibiotic solution (Penicillin-Streptomycin, Gibco). The normal cell line was cultured in Dulbecco's Modified Eagle Medium: Nutrient Mixture F-12 (DMEM/F12, Gibco) supplemented with 5% heating inactivated FBS (Gibco), 1% antibiotic solution (Penicillin-Streptomycin, Gibco), 1% steroid hormone (Hydrocortisone, Sigma-Aldrich), 0.1% peptide hormone (Insulin, Sigma-Aldrich) and 0.01% protein complex (Cholera Toxin, Gibco). Two distinct human acute myeloid leukemia (AML) cell lines, HL-60 (FAB M2) and KG-1 (erythroleukemia-FAB M6), and one human lymphoblastic leukemia (ALL) cell line, Jurkat (T cell type), were also used. These three cell lines were obtained from German Collection of Microorganisms and Cell cultures (DMSZ®, Deutsche Sammlung von Mikroorganismen and Zellkulturen in German). Cells were cultured in RPMI 1640 medium (Biochrom®-Merck Millipore) supplemented with 10% heating inactivated FBS (Biochrom®-Merck Millipore) and 1% antibiotic/antimitotic mixture (Invitrogen®). Three human glioblastoma (GBM) cell line models, two established and commercially available cell lines (U87MG and GAMG, kind gift from Rui M. Reis) and one primary GBM culture (GLIB) were also used. GBM cells were cultures in DMEM (Biochrom-Merck Millipore), all supplemented with 10% FBS. The Renal cell carcinoma cell lines A498, 786-O, Caki-2 and HK2 were obtained from ATCC. The cancer cell line A498 was cultured in MEM medium (Biochrom®-Merck Millipore), 786-O was cultured in RPMI 1640 medium (Biochrom®-Merck Millipore), Caki-2 was cultured in Mc Coys medium (Biochrom®-Merck Millipore) and HK2 was cultured in RPMI 1640 medium (Biochrom®-Merck Millipore). All the media were supplemented with 10% heat inactivated FBS (Biochrom®-Merck Millipore) and 1% antibiotic/antimitotic mixture (Invitrogen®). All cells were grown in a humidified incubator at 37° C. and 5% CO2. For all assays, DMSO (Dimethyl Sulfoxide, Sigma-Aldrich) controls were used.
In an embodiment, cell viability assays were performed. MCF-7, Hs578T and MCF-10A cells were plated in triplicate in 96-multiwell culture plates, at 3000 cells […], or 5000 cells […] for MDA-MB-468 (100 μL/well). The cells were then allowed to adhere in complete medium, over a period of 18-20 hours. Cells were subsequently treated with 7 different concentrations (from 0.1 to 40 μM or 5 to 60 μM) of compounds or control in fresh medium. HL-60, KG-1 and Jurkat cell lines were plated in 96-multiwell culture plates at 50.000 cells/100 μL per well and treated with different concentrations (from 0.001 to 2 μM) of the compounds described (or control). Cells were plated, in triplicate, at an initial density of 2000 cells/well for GAMG, 4000 cells/well for GL18 and 6000 cells/well for U87MG, in 96-well plates, and allowed to adhere for 18-20 hours. […]

[2] = system: TNBC cell line MDA-MB-231; assay: Cell viability assay, MDA-MB-231; type: cell-based; settings: selectivity index
TNBC cell line Hs578t = assay: Cell viability assay (MTS), Hs578t; type: cell-based, human; settings: selectivity index
Excerpt: (§2) In an embodiment, for a comparison study, monomers and respective dimers were selected and further evaluated in Hs578t and MDA-MB-468 breast cell lines. […] These cell lines correspond to the basal-like subtype of breast cancer, included in the known triple negative subtype, since they are negative for Estrogen receptor (ER), progesterone receptor (PR) and Human epidermal growth factor receptor 2 (HER2) molecular markers. The clinical behaviour of these breast cancer subtype is very aggressive and there is still no specific molecular therapy available.
as §1
(§3) In an embodiment, cell viability assays were performed. MCF-7, Hs578T and MCF-10A cells were plated in triplicate in 96-multiwell culture plates, at 3000 cells […], or 5000 cells […] for MDA-MB-468 (100 μL/well). The cells were then allowed to adhere in complete medium, over a period of 18-20 hours. Cells were subsequently treated with 7 different concentrations (from 0.1 to 40 μM or 5 to 60 μM) of compounds or control in fresh medium. HL-60, KG-1 and Jurkat cell lines were plated in 96-multiwell culture plates at 50.000 cells/100 μL per well and treated with different concentrations (from 0.001 to 2 μM) of the compounds described (or control). Cells were plated, in triplicate, at an initial density of 2000 cells/well for GAMG, 4000 cells/well for GL18 and 6000 cells/well for U87MG, in 96-well plates, and allowed to adhere for 18-20 hours. Cells were then treated with different concentrations of the compounds (0.005 to 100 μM) or with control. […]

[3] = system: renal carcinoma cell line 786-O; assay: Cell viability (sulforhodamine B), 786-O; type: cell-based; settings: selectivity index
Protocol: (§4) In an embodiment, the antiproliferative activity of the compounds was further determined against renal carcinoma cell lines and non-neoplastic kidney cell line.
as §1
as §3, with “control. A498 and 786-O cells were plated at 2000 cells per mL, Caki-2 cells were plated at 3000 cells per mL and HK2 cells were plated at 2000 cells per mL in triplicate, in 96-multiwell culture plates (100 μL/well), and allowed to adhere over a period of 18-20 hours in complete medium. The cells were then treated with 7 different concentrations (from 0.1 to 40 μM or 5 to 60 μM) of compounds or control in fresh medium.” for “control.”

[4] = system: renal carcinoma cell line Caki-2; assay: Cell viability (sulforhodamine B), Caki-2; type: cell-based; settings: selectivity index
Protocol: as §4, §1
as §3, with “control. A498 and 786-O cells were plated at 2000 cells per mL, Caki-2 cells were plated at 3000 cells per mL and HK2 cells were plated at 2000 cells per mL in triplicate, in 96-multiwell culture plates (100 μL/well), and allowed to adhere over a period of 18-20 hours in complete medium. The cells were then treated with 7 different concentrations (from 0.1 to 40 μM or 5 to 60 μM) of compounds or control in fresh medium.” for “control.”

[5] = system: renal carcinoma cell line A498; assay: Cell viability (sulforhodamine B), A498; type: cell-based; settings: selectivity index
Protocol: as §4, §1
as §3, with “control. A498 and 786-O cells were plated at 2000 cells per mL, Caki-2 cells were plated at 3000 cells per mL and HK2 cells were plated at 2000 cells per mL in triplicate, in 96-multiwell culture plates (100 μL/well), and allowed to adhere over a period of 18-20 hours in complete medium. The cells were then treated with 7 different concentrations (from 0.1 to 40 μM or 5 to 60 μM) of compounds or control in fresh medium.” for “control.”

[6] = system: TNBC cell line MDA-MB-468; assay: Cell viability assay (MTS), MDA-MB-468; type: cell-based, human; settings: selectivity index
Excerpt: as §2
as §1, with “For all assays, DMSO (Dimethyl Sulfoxide, Sigma-Aldrich) controls were used.” left out

Row | SMILES | SI [1] | SI MDA-MB-231 vs MCF-10A [2] | SI Hs578t vs MCF-10A (TNBC cell line Hs578t) | SI HK2 vs 786-O [3] | SI HK2 vs Caki-2 [4] | SI HK2 vs A498 [5] | SI MDA-MB-468 vs MCF-10A [6]
1 | COc1cccc2c1Oc1nc(-c3cccc(F)c3)[nH]c1C2 [MC349, 2-(3-fluorophenyl)-5-methoxy-3,9-dihydrochromeno[2,3-d]imidazoles] | 2.0 | 0.9 | 2.6 | 4.89 | 4.97 | 1.35 | 
2 | COc1cccc2c1Oc1nc(-c3ccc(Br)cc3)[nH]c1C2 [MC408, 2-(4-bromophenyl)-5-methoxy-3,9-dihydrochromeno[2,3-d]imidazoles] | 3.8 | 0.2 | 62.6 | 53.59 | 38.29 | 24.00 | 109.7
3 | COc1cccc2c1Oc1nc(-c3cc(F)cc(F)c3O)[nH]c1C2 [MC410, 2,4-difluoro-6-(5-methoxy-3,9-dihydrochromeno[2,3-d]imidazol-2-yl)phenol] | >7 |  |  | 50.78 | 1.71 |  | 
4 | COc1cccc2c1Oc1nc(-c3ccc(Cl)cc3)[nH]c1C2 [MC412, 2-(4-chlorophenyl)-5-methoxy-3,9-dihydrochromeno[2,3-d]imidazoles] | 3.0 | 0.04 | 0.8 | 49.97 | 40.82 | 4.60 | 
5 | COc1cccc2c1Oc1nc(-c3ccccc3F)[nH]c1C2 [MC407, 2-(2-fluorophenyl)-5-methoxy-3,9-dihydrochromeno[2,3-d]imidazoles] | 8.8 | 1.4 |  | 0.54 | 1.39 | ns | 
6 | COc1cccc(-c2nc3c([nH]2)Cc2cccc(OC)c2O3)c1O [Compound M955] | >6 | >0.5 |  |  |  |  | 
7 | CCOc1ccc(-c2nc3c([nH]2)Cc2cccc(OC)c2O3)cc1 [MC415, 2-(4-ethoxyphenyl)-5-methoxy-3,9-dihydrochromeno[2,3-d]imidazoles] | 0.2 | 0.3 | 2.3 | 22.71 | 83.52 | 43.24 | 
8 | COc1cccc2c1Oc1nc(-c3cccc(O)c3)[nH]c1C2 [MC359, 3-(5-methoxy-3,9-dihydrochromeno[2,3-d]imidazol-2-yl)phenol] | 1.4 | 1.5 | 0.9 | 0.65 | 1.26 | 1.16 | 
9 | COc1ccc2c(c1)Cc1[nH]c(-c3cc(OC)ccc3O)nc1O2 [Compound M1220] | >4 |  |  |  |  |  | 
10 | COc1cccc2c1Oc1nc(-c3ccccc3)[nH]c1C2 [MC350, 5-methoxy-2-phenyl-3,9-dihydrochromeno[2,3-d]imidazoles] | 10.4 | 2.4 |  | 40.91 | 53.57 | 24.85 | 
11 | Oc1ccccc1-c1nc2c([nH]1)Cc1ccccc1O2 [Compound M1159] | >7 | >0.6 |  | 0.847 |  | ns | 
12 | COc1ccccc1-c1nc2c([nH]1)Cc1cccc(OC)c1O2 [MC411, 5-methoxy-2-(2-methoxyphenyl)-3,9-dihydrochromeno[2,3-]imidazoles] | 3.0 | 2.8 | −0.2 | 0.27 | 0.20 |  | 
13 | COc1ccc(-c2nc3c([nH]2)Cc2cccc(OC)c2O3)c(Br)c1O [MC416, 2-bromo-6-methoxy-3-(5-methoxy-3,9-dihydrochromeno[2,3-]imidazol-2-yl)phenol] | 0.86 |  | -0.4 | 0.50 | 0.86 |  | 
14 | COc1cccc2c1Oc1nc(-c3ccc(O)cc3)[nH]c1C2 [MC413, 4-(5-methoxy-3,9-dihydrochromeno[2,3-d]imidazol-2-yl)phenol] | >17 | >30 | >19 | 13.09 | 25.92 | 9.70 | 
15 | COc1cccc2c1Oc1nc(-c3ccccc3F)[nH]c1C2C1c2cccc(OC)c2Oc2nc(-c3ccccc3F)[nH]c21 (stereo not shown) [MC369, 2,2′-bis(2-fluorophenyl)-5,5′-dimethoxy-1,1,9,9′-tetrahydro-9,9′-bichromeno[2,3-]imidazoles] | >76 | >6 |  | 14.57 | 6.57 |  | 
